Measured values as given in PubChem BioAssay AID504467 (National Center for Advancing Translational Sciences (NCATS), 2011).
Hit rate of the full screen: of about 330,000 compounds, about 7,700 (2.3%) were called active. The shares of active, inactive and inconclusive entries below differ from those in the screen. The call rests on the fitted dose curve; in most records, active means well fitted inhibition curve with a large enough effect; inconclusive means small, poorly fitted or top-dose-only effect, or effect the other way; inactive means flat fitted curve, though single readings scatter. A potency beside an inconclusive call is a rough fit, not a confirmed value.

Assay: qHTS screen for small molecules that inhibit ELG1-dependent DNA repair in human embryonic kidney (HEK293T) cells expressing luciferase-tagged ELG1; further: nearly all actives have a fitted effect of over 55% in size
Conditions: HEK293T ELG1-luciferase reporter, luminescence, 16 h, DNA damage induced by 5-fluorouridine; activity change, negative = inhibition: at 46.1 µM (top of the series)
Outline: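 Luminescence from the luciferase reporter, measured 30 min after ONE-Glo reagent at room temperature, was the read-out. Beforehand, 2,000 cells per well were exposed for 16 hr at 37 °C to 5-fluorouridine together with compound or vehicle.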
On the % scale 0 is the no-effect control and ±100 the full control effect; potency means the concentration at half of the fitted maximal effect.

Q: For `CCOC(=O)c1ccc(N=c2scc(C)n2CC)cc1`, which Potency is on record?
A: inconclusive: 20.6 µM [activator, partial curve]

Q: Which Potency does the source give for `NC(=S)N/N=C/c1ccc(-c2cc(Cl)ccc2Cl)o1` here?
A: inconclusive: 1.16 µM [inhibitor, full curve]

Q: With `COc1cc(/C=C/C(=O)NCc2ccccn2)cc(OC)c1OC` as the compound, how does the Potency read?
A: inconclusive: 20.6 µM [activator, partial curve, poor fit]

Q: For `CCOC(=O)c1sc(Nc2nc3c(OC)cccc3s2)nc1C`, which Potency is on record?
A: inconclusive: 29.1 µM [inhibitor, single point]

Q: For `CC(=O)NC1(C(Cl)(Cl)Cl)Oc2ccccc2O1`, which Potency is on record?
A: inconclusive: 23.1 µM [inhibitor, single point]

Q: Which Potency does the source give for `CC1CCN(C(=O)c2ccc3c(c2NCCO)C(=O)c2ccccc2C3=O)CC1` here?
A: inconclusive: 20.6 µM [inhibitor, partial curve]

Q: With `CC(C)(C)N(NS(=O)(=O)c1ccc(F)cc1)c1ccccc1` as the compound, how does the Potency read?
A: inactive

Q: Which Potency does the source give for `CCN1CCN(c2ccc(S(=O)(=O)N3CCCCC3)cc2NC(=O)/C=C/c2ccc(F)cc2)CC1` here?
A: inconclusive: 23.1 µM [activator, single point]

Q: Which Potency does the source give for `CCOC(=O)C1=C(Cn2cnc3ccccc32)NC(=O)NC1c1ccc(Cl)cc1` (configuration not stated) here?
A: inactive

Q: Which Potency does the source give for `COc1ccc(CC(=O)NCCS(=O)(=O)N2CCN(c3ccccc3OC)CC2)cc1` here?
A: inconclusive: 23.1 µM [inhibitor, single point]

Q: For `CC(OC(=O)CN1C(=O)c2ccccc2C1=O)C(=O)NC1CCCCC1C` (configuration not stated), which Potency is on record?
A: inconclusive: 0.73 µM [inhibitor, single point]

Q: With `Cn1cccc1C1CCCN1CC(=O)Nc1ccc(F)c(F)c1F` (configuration not stated) as the compound, how does the Potency read?
A: inconclusive: 29.1 µM [activator, partial curve, poor fit]

Q: Which Potency does the source give for `COc1ccc(N(C(=O)c2ccncc2)S(=O)(=O)c2ccccc2)cc1` here?
A: inactive

Q: With `Cc1ccccc1-n1nc2c(c1NC(=O)/C=C\c1ccc3c(c1)OCO3)CSC2` as the compound, how does the Potency read?
A: inconclusive: 18.4 µM [inhibitor, partial curve, poor fit]

Q: Which Potency does the source give for `C/C(=N\NC(=O)c1cccc(N/N=C(\C)c2ccco2)c1)c1ccco1` here?
A: inconclusive: 18.3 µM [activator, partial curve]

Q: Which Potency does the source give for `COc1ccc(C2NC(=O)Cc3cc(OC)c(OC)cc32)cc1OC` (configuration not stated) here?
A: inactive

Q: Which Potency does the source give for `CCCC(=O)c1ccc(N2CCN(C(=O)c3ccccc3Br)CC2)c(F)c1` here?
A: inconclusive: 32.6 µM [inhibitor, partial curve, poor fit]

Q: Which Potency does the source give for `Cc1nc2ccccc2n1CC(O)COc1ccc(Br)cc1` (configuration not stated) here?
A: inconclusive: 9.2 µM [inhibitor, partial curve]

Q: Which activity change, negative = inhibition does the source give for `CC1(c2ccc3ccccc3c2)NC(=O)N(CC(=O)N2CCCC(C(F)(F)F)C2)C1=O` (configuration not stated) here?
A: inconclusive: 21.1% [activator]

Q: Which Potency does the source give for `CCOc1ccc(NC(=O)c2ccc(CSc3nnc(C)s3)cc2)cc1` here?
A: inconclusive: 18.3 µM [activator, single point]

Q: Which Potency does the source give for `Cc1ccc(C(=O)Nc2cc3ccccc3oc2=O)cc1` here?
A: inconclusive: 0.058 µM [activator, full curve, poor fit]

Q: For `S=c1[nH]nc(-c2cccnc2)n1/N=C/C=C/c1ccccc1`, which Potency is on record?
A: inconclusive: 0.651 µM [inhibitor, partial curve, poor fit]

Q: For `Cc1cccc(/C(N)=N/OC(=O)c2ccc(F)cc2)c1`, which Potency is on record?
A: inconclusive: 16.4 µM [activator, partial curve]

Q: Which Potency does the source give for `O=C(NCc1cccs1)C1CCCN(S(=O)(=O)c2cccc3cccnc23)C1` (configuration not stated) here?
A: inconclusive: 29.1 µM [inhibitor, single point]

Q: With `CCOc1ccc(C(=O)N2CCc3ccccc32)cc1` as the compound, how does the Potency read?
A: inconclusive: 29.1 µM [activator, single point]

Q: For `O=C(Nc1ccc(N2CCOCC2)c(Cl)c1)c1cc(F)c(F)cc1Cl`, which Potency is on record?
A: inconclusive: 29.1 µM [inhibitor, single point]

Q: For `c1ccc(-c2nc3c(ccc4ccccc43)[nH]2)nc1`, which Potency is on record?
A: inconclusive: 4.11 µM [activator, partial curve]

Q: For `COc1ccc(CCNC2CC(=O)N(CCc3ccccc3)C2=O)cc1OC` (configuration not stated), which Potency is on record?
A: inactive

Q: With `COc1cccc(CNC(=O)CCC2CCCN(C(=O)c3cccc(Cl)c3)C2)c1` (configuration not stated) as the compound, how does the Potency read?
A: inconclusive: 25.9 µM [inhibitor, partial curve]

Q: Which Potency does the source give for `CCOCCc1nnc(NC(=O)c2cccc(F)c2)s1` here?
A: inconclusive: 20.6 µM [activator, partial curve]

Q: Which Potency does the source give for `CCOC(=O)C1=C(CSc2nc(-c3ccccc3)ccc2C#N)OC(N)=C(C#N)C1c1ccc(OC)cc1` (configuration not stated) here?
A: inconclusive: 18.4 µM [activator, partial curve]

Q: For `CCOc1ccc(-c2c(C(=O)N/N=C/c3ccc(C)s3)nnn2-c2nonc2N)cc1`, which Potency is on record?
A: inactive

Q: With `Cc1ccc(C(=O)/C=C\NCc2ccccc2)cc1` as the compound, how does the Potency read?
A: inconclusive: 20.6 µM [activator, partial curve]

Q: Which Potency does the source give for `O=C(COC(=O)c1cc(S(=O)(=O)N2CCCCC2)ccc1N1CCOCC1)NC1CCCCC1` here?
A: inconclusive: 29.1 µM [inhibitor, single point]

Q: Which Potency does the source give for `CCCCOc1cccc(C2/C(=C(/O)c3ccc4c(c3)CC(C)O4)C(=O)C(=O)N2CCN2CCOCC2)c1` (configuration not stated) here?
A: inactive

Q: Which Potency does the source give for `Cc1ccc(N2C(=O)CC(N(CCc3ccccc3)C(=S)Nc3ccc(N(C)C)cc3)C2=O)cc1` (configuration not stated) here?
A: inactive

Q: With `CC1(C)CN(c2ccccc2)N(C(=O)c2ccc(F)cc2)C1=O` as the compound, how does the Potency read?
A: inactive

Q: For `O=[N+]([O-])c1ccc(Oc2ccc(F)cc2)c2ccncc12`, which Potency is on record?
A: inconclusive: 9.2 µM [inhibitor, partial curve]

Q: With `CC(C)CCOC(=O)C[N+](C)(C)CCOC1CC2CCC1(C)C2(C)C` (configuration not stated) as the compound, how does the Potency read?
A: inconclusive: 13 µM [inhibitor, partial curve]

Q: Which Potency does the source give for `CCOc1ccc(NC(=S)Nc2ccccc2C2(C)CC2)cc1` here?
A: inconclusive: 29.1 µM [inhibitor, single point]

Q: Which Potency does the source give for `CCOc1cccc(C(=O)Nc2nc(-c3ccc(S(=O)(=O)N4CCOCC4)cc3)cs2)c1` here?
A: inconclusive: 4.61 µM [inhibitor, single point]

Q: For `Cc1ccc2[nH]c(O)c(N=Nc3nc4ccccc4s3)c2c1`, which Potency is on record?
A: inconclusive: 3.66 µM [inhibitor, single point]
